Values from PubChem BioAssay AID1259308 (NCATS, 2017)
Purpose: 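Candidate targets for better recombinant protein yield in mammalian cells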 (primary screen). Cells: human HEK293 embryonic kidney cells stably expressing firefly luciferase (HEK-CMV-Luc2-Hygro). Reagent: single siRNA against human genes, 0.8 pmol siRNA per well. Timing: 72 h. Measured: 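Reporter luminescence and viable-cell signal on separate replicate plates, given as percent of non-targeting control and median/MAD z-scores, plus per-cell luciferase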. Reading the numbers: total luciferase, z-score: higher = more reporter protein produced. Rule for the call: 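Active when the median/MAD z-score for overall luciferase is greater than 3; a gene was taken forward for validation with new siRNAs if at least two of its three siRNAs passed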. Calls: active = raised luciferase; inactive = no rise.
Here is one part, drawn at random, of about 59,000 reagents tested. Of all reagents, about 1,510 (2.6%) were called active. 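Calls use total luciferase alone and ignore viability, so some active siRNAs may act by altering cell number.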 The numbers tell different reagents against one gene apart. Not all columns of the deposit are shown. Reagent sequences are not shown.

Against GFI1 (GeneID 2672) #1, the entry reads total luciferase, z-score 0.653; inactive. After knock-down of GFI1 (GeneID 2672) #2, the screen gave total luciferase, z-score -1.39; inactive. For GFI1 (GeneID 2672) #3 the deposit lists total luciferase, z-score 0.754; inactive. ESM1 (GeneID 11082) #1 showed total luciferase, z-score 1.18; inactive. Depletion of ESM1 (GeneID 11082) #2 gave: total luciferase, z-score -2.12; inactive. Silencing of ESM1 (GeneID 11082) #3 gave: total luciferase, z-score -1.5; inactive.

After knock-down of ZCCHC4 (GeneID 29063) #1, the record shows total luciferase, z-score -0.584; inactive. ZCCHC4 (GeneID 29063) #2 scored total luciferase, z-score -0.0221; inactive. ZCCHC4 (GeneID 29063) #3 gave total luciferase, z-score -1.13; inactive. For CAV3 (GeneID 859) #1, the values are total luciferase, z-score -0.973; inactive. CAV3 (GeneID 859) #2 showed total luciferase, z-score -0.518; inactive. For CAV3 (GeneID 859) #3, the entry reads total luciferase, z-score -0.734; inactive.
